Values from PubChem BioAssay AID1259254 (NCATS, 2017).
The deposit covers about 59,000 reagents; this is a random part of them. Over the whole deposit, about 1,550 (2.6%) are marked active. 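G2 share is only a proxy for re-replication; each gene was hit by three separate siRNAs, and active genes were retested.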 The numbers tell different reagents against one gene apart. Further read-outs or replicates are left out here. No sequences are given here. The record does not give: the amount of reagent.

Test: 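Genome-wide screen for genes that prevent DNA re-replication in cancer cells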 (primary screen)
Cell system: human HCT116 colorectal cancer cells
Reagents: single siRNA against human genes
Time to read-out: 3 days
Detection: 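Nuclei stained with Hoechst and imaged; cell-cycle phase assigned by DNA content; G2 share scaled per plate, non-targeting siRNA 0%, GMNN siRNA 100%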
Scale: G2 robust z-score and G2 cells, % of GMNN control: higher = more G2 cells, more excess DNA replication
Active means: 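Active siRNAs have a G2 robust z of 5 or more median absolute deviations over the median, which in these data means about 38% or higher of GMNN control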

Gene | reagent no. | G2 robust z-score | G2 cells, % of GMNN control | Outcome
HDDC2 (HD domain containing 2) | 1 | -0.706 | -2 | inactive
HDDC2 (HD domain containing 2) | 2 | 1.8 | 15.6 | inactive
HDDC2 (HD domain containing 2) | 3 | -0.952 | -3.73 | inactive
LRBA (LPS responsive beige-like anchor protein) | 1 | 0.898 | 9.28 | inactive
LRBA (LPS responsive beige-like anchor protein) | 2 | 0.351 | 5.44 | inactive
LRBA (LPS responsive beige-like anchor protein) | 3 | 0.542 | 6.78 | inactive
TPD52 (tumor protein D52) | 1 | -0.31 | 0.785 | inactive
TPD52 (tumor protein D52) | 2 | 0.225 | 4.55 | inactive
TPD52 (tumor protein D52) | 3 | 2.24 | 18.7 | inactive
SAP130 (Sin3A associated protein 130) | 1 | 0.935 | 9.55 | inactive
SAP130 (Sin3A associated protein 130) | 2 | 3.76 | 29.4 | inactive
SAP130 (Sin3A associated protein 130) | 3 | 8.38 | 62 | active
PSMB7 (proteasome 20S subunit beta 7) | 1 | 0.986 | 9.9 | inactive
PSMB7 (proteasome 20S subunit beta 7) | 2 | 1.11 | 10.8 | inactive
PSMB7 (proteasome 20S subunit beta 7) | 3 | 0.621 | 7.34 | inactive
OR6B3 (olfactory receptor family 6 subfamily B member 3) | 1 | -0.345 | 0.54 | inactive
OR6B3 (olfactory receptor family 6 subfamily B member 3) | 2 | 1.13 | 10.9 | inactive
OR6B3 (olfactory receptor family 6 subfamily B member 3) | 3 | 0.398 | 5.77 | inactive
AAK1 (AP2 associated kinase 1) | 1 | 0.764 | 8.35 | inactive
AAK1 (AP2 associated kinase 1) | 2 | -0.0521 | 2.6 | inactive
AAK1 (AP2 associated kinase 1) | 3 | -0.556 | -0.944 | inactive
WDR73 (WD repeat domain 73) | 1 | 0.365 | 5.53 | inactive
WDR73 (WD repeat domain 73) | 2 | -0.315 | 0.754 | inactive
WDR73 (WD repeat domain 73) | 3 | -0.114 | 2.17 | inactive
OR4K13 (olfactory receptor family 4 subfamily K member 13) | 1 | -0.73 | -2.17 | inactive
OR4K13 (olfactory receptor family 4 subfamily K member 13) | 2 | -0.201 | 1.55 | inactive
OR4K13 (olfactory receptor family 4 subfamily K member 13) | 3 | -0.873 | -3.18 | inactive
CELA3A (chymotrypsin like elastase 3A) | 1 | 4.54 | 34.9 | inactive
CELA3A (chymotrypsin like elastase 3A) | 2 | 2.81 | 22.7 | inactive
CELA3A (chymotrypsin like elastase 3A) | 3 | -0.261 | 1.13 | inactive
SLC38A7 | 1 | -0.548 | -0.891 | inactive
SLC38A7 | 2 | 0.549 | 6.83 | inactive
SLC38A7 | 3 | -0.29 | 0.925 | inactive
HRK (harakiri, BCL2 interacting protein) | 1 | 5.6 | 42.3 | active
HRK (harakiri, BCL2 interacting protein) | 2 | -1 | -4.1 | inactive
HRK (harakiri, BCL2 interacting protein) | 3 | 0.594 | 7.14 | inactive
IGFN1 | 1 | 0.681 | 7.76 | inactive
IGFN1 | 2 | 0.512 | 6.57 | inactive
IGFN1 | 3 | 0.071 | 3.47 | inactive
TPD52L1 (TPD52 like 1) | 1 | -0.226 | 1.37 | inactive
TPD52L1 (TPD52 like 1) | 2 | 1.4 | 12.8 | inactive
TPD52L1 (TPD52 like 1) | 3 | 0.545 | 6.8 | inactive
GALNT6 (polypeptide N-acetylgalactosaminyltransferase 6) | 1 | 0.728 | 8.09 | inactive
GALNT6 (polypeptide N-acetylgalactosaminyltransferase 6) | 2 | -0.562 | -0.983 | inactive
GALNT6 (polypeptide N-acetylgalactosaminyltransferase 6) | 3 | 0.907 | 9.35 | inactive
KAT6B (lysine acetyltransferase 6B) | 1 | 0.94 | 9.58 | inactive
KAT6B (lysine acetyltransferase 6B) | 2 | 0.15 | 4.03 | inactive
KAT6B (lysine acetyltransferase 6B) | 3 | -0.161 | 1.83 | inactive
CNBD2 (cyclic nucleotide binding domain containing 2) | 1 | -0.615 | -1.36 | inactive
CNBD2 (cyclic nucleotide binding domain containing 2) | 2 | -0.459 | -0.26 | inactive
CNBD2 (cyclic nucleotide binding domain containing 2) | 3 | -0.0482 | 2.63 | inactive
SENP5 (SUMO specific peptidase 5) | 1 | 1.58 | 14.1 | inactive
SENP5 (SUMO specific peptidase 5) | 2 | -0.0257 | 2.79 | inactive
SENP5 (SUMO specific peptidase 5) | 3 | -0.497 | -0.53 | inactive
CCL28 (C-C motif chemokine ligand 28) | 1 | -0.787 | -2.57 | inactive
CCL28 (C-C motif chemokine ligand 28) | 2 | -1.03 | -4.31 | inactive
CCL28 (C-C motif chemokine ligand 28) | 3 | 0.156 | 4.07 | inactive
RHBDD2 (rhomboid domain containing 2) | 1 | 0.029 | 3.17 | inactive
RHBDD2 (rhomboid domain containing 2) | 2 | -0.12 | 2.12 | inactive
RHBDD2 (rhomboid domain containing 2) | 3 | 0.619 | 7.32 | inactive
SLC11A2 | 1 | -1.81 | -9.8 | inactive
SLC11A2 | 2 | -0.904 | -3.39 | inactive
SLC11A2 | 3 | 1.12 | 10.8 | inactive
PGD (phosphogluconate dehydrogenase) | 1 | -0.638 | -1.52 | inactive
PGD (phosphogluconate dehydrogenase) | 2 | -1.26 | -5.92 | inactive
PGD (phosphogluconate dehydrogenase) | 3 | 0.115 | 3.78 | inactive
LINC01588 (long independently transcribed non-coding RNA 1588) | 1 | 1.77 | 15.4 | inactive
LINC01588 (long independently transcribed non-coding RNA 1588) | 2 | 1.14 | 11 | inactive
LINC01588 (long independently transcribed non-coding RNA 1588) | 3 | -0.35 | 0.508 | inactive

A stretch from the list above, for reference:
Gene | reagent no. | G2 robust z-score | G2 cells, % of GMNN control | Outcome
CCL28 (C-C motif chemokine ligand 28) | 3 | 0.156 | 4.07 | inactive
RHBDD2 (rhomboid domain containing 2) | 1 | 0.029 | 3.17 | inactive
RHBDD2 (rhomboid domain containing 2) | 2 | -0.12 | 2.12 | inactive
RHBDD2 (rhomboid domain containing 2) | 3 | 0.619 | 7.32 | inactive
SLC11A2 | 1 | -1.81 | -9.8 | inactive
SLC11A2 | 2 | -0.904 | -3.39 | inactive
SLC11A2 | 3 | 1.12 | 10.8 | inactive
PGD (phosphogluconate dehydrogenase) | 1 | -0.638 | -1.52 | inactive
PGD (phosphogluconate dehydrogenase) | 2 | -1.26 | -5.92 | inactive
